These are yes or no findings as the source states them, for the method shown. Some binding calls cover weakened binding; strength is not graded here.
Columns and labels:
[1] = molecular target: human PD-L1 (Programmed Cell Death 1 Ligand 1) (human) (UniProt Q9NZQ7); assay: radioligand cell binding, 32 pM ^111In-PD-L1.3.1, 4 h, gamma counter; non-specific binding determined with 1,000-fold excess of unlabeled antibody
[2] = molecular target: human PD-L1 (Programmed Cell Death 1 Ligand 1) (human) (UniProt Q9NZQ7); assay: binding and internalization time course on MDA-MB-231 cells, 75 pM ^111In-PD-L1.3.1 at 37 °C, acid wash to separate the membrane-bound from the internalized fraction, non-specific part (17 nM unlabeled PD-L1.3.1) subtracted, gamma counter
[3] = molecular target: human PD-L1 (Programmed Cell Death 1 Ligand 1) (human) (UniProt Q9NZQ7); assay: radioligand binding to confluent breast cancer cells in six-well plates, 32 pM ^111In-PD-L1.3.1, 4 h at 37 °C or on ice, non-specific binding (1,000-fold excess of unlabeled PD-L1.3.1) subtracted, gamma counter
[4] = molecular target: human PD-L1 (Programmed Cell Death 1 Ligand 1) (human) (UniProt Q9NZQ7); assay: saturation binding / Scatchard analysis on cells, 3-3000 pM ^111In-PD-L1.3.1 in 1 ml, 4 h on ice, non-specific binding (100 nM PD-L1.3.1) subtracted; the panel does not name the cell line (MDA-MB-231 cells were used in subsequent binding assays)
[5] = molecular target: human PD-L1 (Programmed Cell Death 1 Ligand 1) (human) (UniProt Q9NZQ7); assay: summary of the in vitro cell binding assays
[6] = molecular target: human PD-L1 (Programmed Cell Death 1 Ligand 1) (human) (UniProt Q9NZQ7); assay: heading of the in vitro results (radioligand binding to breast cancer cells)
[7] = molecular target: human PD-L1 (Programmed Cell Death 1 Ligand 1) (human) (UniProt Q9NZQ7); assay: competition on MDA-MB-231 cells: increasing unlabeled PD-L1.3.1 against 20 pM ^111In-PD-L1.3.1, 4 h on ice, gamma counter

The chains behind the UniProt entries cited, without tags or fusion partners. Residues count along the entry.
UniProt Q9NZQ7, residues 19-290: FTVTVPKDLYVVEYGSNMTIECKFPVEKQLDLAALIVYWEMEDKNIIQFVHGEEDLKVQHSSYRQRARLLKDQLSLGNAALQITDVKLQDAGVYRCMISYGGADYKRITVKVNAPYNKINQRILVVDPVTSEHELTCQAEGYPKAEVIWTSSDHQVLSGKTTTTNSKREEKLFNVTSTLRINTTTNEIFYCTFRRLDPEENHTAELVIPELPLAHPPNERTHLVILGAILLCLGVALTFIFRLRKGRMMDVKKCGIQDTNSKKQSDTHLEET

Measured: binding

B1: ^111In-DTPA-PD-L1.3.1 (antibody, V domains shown)
VH: EVQLQQSGTELVKPGASVKLSCTTSGFNIQDTYMHWVKQRPEQGLEWIGWIDPANGNTKYDPKFQGKATIIADTSSNTAYLQLRGLTSEDTAVYYCARSGVSTAHFDYWGQGTTLTVSS
VL: QIVLSQSPAILSASPGEKVTMTCRASSSVSFMHWYQQKPGSSPKPWIYATSNLASGVPTRFSGSGSGTSYSLTLSRVEAEDAATYYCQQWSSYPRTFGGGTKLEIK
modifications: ITC-DTPA conjugated and chelating ^111In; residues and chain not stated
not listed: [7]
binds: all other assays above

B2: PD-L1.3.1 antibody (murine monoclonal IgG1, unlabeled) (antibody, V domains shown)
VH: B1 VH
VL: B1 VL
notes: also called PD-L1.3.1 mAb; unlabeled PD-L1.3.1
binds: [7]

— US20180064825A1 (INSERM INSTITUT NATIONAL DE LA SANTE ET DE LA RECHERCHE …, published 2018)
